Laboratory results taken from paper PMC6547611.
No constants are given. Whether binding was seen depends on the method and setting. In cells and extracts the contact can be indirect. Some results given as binding are weak or reduced against the parent protein; the word gives no strength. Tags and fused reporters may be left off the sequences shown.

Legend:
[1] = target: T1, Human purinergic receptor P2X1 fused to EYFP (pEYFP-C1-P2X1) (human) (UniProt P51575); test: FRET or BRET; COS7 cells co-transfected with pECFP-N1-ROP18 (donor) and pEYFP-C1-P2X1 (acceptor), fixed in 4% paraformaldehyde 48 h after transfection; FRET efficiency by confocal laser scanning microscopy
T1 sequence: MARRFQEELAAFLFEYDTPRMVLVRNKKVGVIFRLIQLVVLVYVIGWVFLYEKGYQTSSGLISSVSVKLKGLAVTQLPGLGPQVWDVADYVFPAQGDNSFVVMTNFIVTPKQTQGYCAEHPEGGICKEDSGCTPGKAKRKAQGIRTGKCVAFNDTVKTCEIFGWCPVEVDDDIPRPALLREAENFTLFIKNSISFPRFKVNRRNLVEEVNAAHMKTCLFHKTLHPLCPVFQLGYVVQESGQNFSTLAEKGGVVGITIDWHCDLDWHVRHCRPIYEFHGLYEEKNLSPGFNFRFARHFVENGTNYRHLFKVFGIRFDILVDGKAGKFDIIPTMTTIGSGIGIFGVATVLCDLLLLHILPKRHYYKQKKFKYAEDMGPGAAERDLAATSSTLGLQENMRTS

[2] = target: T2, HA-tagged P2X1 (pcDNA3.1-P2X1-HA), full length (human) (UniProt P51575); test: co-IP; COS7 cells transfected for 48 h with pcDNA3.1-P2X1-HA or pcDNA3.1-P2X1Δ339-399-HA and pcDNA3.1-ROP18-3×Flag; lysates immunoprecipitated with anti-HA antibody and protein A-agarose at 4 °C, western blot
T2 sequence: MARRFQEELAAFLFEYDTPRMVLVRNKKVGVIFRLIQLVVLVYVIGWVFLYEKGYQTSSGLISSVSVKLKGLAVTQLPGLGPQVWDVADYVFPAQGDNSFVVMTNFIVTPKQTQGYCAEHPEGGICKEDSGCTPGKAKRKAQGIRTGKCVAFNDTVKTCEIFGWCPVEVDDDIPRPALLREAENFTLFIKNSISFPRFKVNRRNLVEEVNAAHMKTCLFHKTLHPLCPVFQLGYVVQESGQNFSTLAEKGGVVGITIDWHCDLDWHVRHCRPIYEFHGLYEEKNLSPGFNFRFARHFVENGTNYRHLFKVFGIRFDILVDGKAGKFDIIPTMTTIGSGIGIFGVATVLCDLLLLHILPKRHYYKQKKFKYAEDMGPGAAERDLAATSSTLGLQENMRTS

[3] = target: HA-tagged P2X1 with a deletion of the C-terminus, amino acids 339-399 (pcDNA3.1-P2X1Δ339-399-HA) (human) (UniProt P51575); test: as above
[4] = target: T3, TgROP18 tagged with GFP and Flag, from the RH-ROP18-GFP-Flag strain (Toxoplasma gondii (RH strain)) (UniProt Q2PAY2); test: co-IP; SF268 cells infected with the RH-ROP18-GFP-Flag strain for 36 h; lysates immunoprecipitated with anti-Flag antibody and protein A-agarose at 4 °C, western blot for endogenous P2X1
T3 sequence: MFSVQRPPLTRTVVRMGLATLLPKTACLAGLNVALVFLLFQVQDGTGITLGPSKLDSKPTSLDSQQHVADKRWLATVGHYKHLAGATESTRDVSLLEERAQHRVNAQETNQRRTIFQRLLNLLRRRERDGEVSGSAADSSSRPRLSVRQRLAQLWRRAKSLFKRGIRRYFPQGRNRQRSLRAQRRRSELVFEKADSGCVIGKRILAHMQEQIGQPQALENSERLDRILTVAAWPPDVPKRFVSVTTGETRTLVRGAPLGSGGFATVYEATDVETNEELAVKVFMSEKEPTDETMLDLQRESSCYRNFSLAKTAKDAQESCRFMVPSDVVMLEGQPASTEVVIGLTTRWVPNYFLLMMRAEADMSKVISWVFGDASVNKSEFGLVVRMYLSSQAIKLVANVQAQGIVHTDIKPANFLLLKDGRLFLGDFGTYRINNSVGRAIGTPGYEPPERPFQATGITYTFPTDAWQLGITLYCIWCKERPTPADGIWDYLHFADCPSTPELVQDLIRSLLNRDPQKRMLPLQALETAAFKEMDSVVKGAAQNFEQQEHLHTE

B1: Toxoplasma gondii rhoptry protein 18 (TgROP18) fused to ECFP (pECFP-N1-ROP18) (protein, UniProt Q2PAY2 1-554)
chain: MFSVQRPPLTRTVVRMGLATLLPKTACLAGLNVALVFLLFQVQDGTGITLGPSKLDSKPTSLDSQQHVADKRWLATVGHYKHLAGATESTRDVSLLEERAQHRVNAQETNQRRTIFQRLLNLLRRRERDGEVSGSAADSSSRPRLSVRQRLAQLWRRAKSLFKRGIRRYFPQGRNRQRSLRAQRRRSELVFEKADSGCVIGKRILAHMQEQIGQPQALENSERLDRILTVAAWPPDVPKRFVSVTTGETRTLVRGAPLGSGGFATVYEATDVETNEELAVKVFMSEKEPTDETMLDLQRESSCYRNFSLAKTAKDAQESCRFMVPSDVVMLEGQPASTEVVIGLTTRWVPNYFLLMMRAEADMSKVISWVFGDASVNKSEFGLVVRMYLSSQAIKLVANVQAQGIVHTDIKPANFLLLKDGRLFLGDFGTYRINNSVGRAIGTPGYEPPERPFQATGITYTFPTDAWQLGITLYCIWCKERPTPADGIWDYLHFADCPSTPELVQDLIRSLLNRDPQKRMLPLQALETAAFKEMDSVVKGAAQNFEQQEHLHTE
binding [1]: binds

B2: Flag-tagged TgROP18 (pcDNA3.1-ROP18-3×Flag) (protein, UniProt Q2PAY2 1-554)
chain: MFSVQRPPLTRTVVRMGLATLLPKTACLAGLNVALVFLLFQVQDGTGITLGPSKLDSKPTSLDSQQHVADKRWLATVGHYKHLAGATESTRDVSLLEERAQHRVNAQETNQRRTIFQRLLNLLRRRERDGEVSGSAADSSSRPRLSVRQRLAQLWRRAKSLFKRGIRRYFPQGRNRQRSLRAQRRRSELVFEKADSGCVIGKRILAHMQEQIGQPQALENSERLDRILTVAAWPPDVPKRFVSVTTGETRTLVRGAPLGSGGFATVYEATDVETNEELAVKVFMSEKEPTDETMLDLQRESSCYRNFSLAKTAKDAQESCRFMVPSDVVMLEGQPASTEVVIGLTTRWVPNYFLLMMRAEADMSKVISWVFGDASVNKSEFGLVVRMYLSSQAIKLVANVQAQGIVHTDIKPANFLLLKDGRLFLGDFGTYRINNSVGRAIGTPGYEPPERPFQATGITYTFPTDAWQLGITLYCIWCKERPTPADGIWDYLHFADCPSTPELVQDLIRSLLNRDPQKRMLPLQALETAAFKEMDSVVKGAAQNFEQQEHLHTE
binding [2]: binds | binding [3]: no binding

B3: Endogenous P2X1 from SF268 cells (receptor, UniProt P51575 1-399)
chain: MARRFQEELAAFLFEYDTPRMVLVRNKKVGVIFRLIQLVVLVYVIGWVFLYEKGYQTSSGLISSVSVKLKGLAVTQLPGLGPQVWDVADYVFPAQGDNSFVVMTNFIVTPKQTQGYCAEHPEGGICKEDSGCTPGKAKRKAQGIRTGKCVAFNDTVKTCEIFGWCPVEVDDDIPRPALLREAENFTLFIKNSISFPRFKVNRRNLVEEVNAAHMKTCLFHKTLHPLCPVFQLGYVVQESGQNFSTLAEKGGVVGITIDWHCDLDWHVRHCRPIYEFHGLYEEKNLSPGFNFRFARHFVENGTNYRHLFKVFGIRFDILVDGKAGKFDIIPTMTTIGSGIGIFGVATVLCDLLLLHILPKRHYYKQKKFKYAEDMGPGAAERDLAATSSTLGLQENMRTS
binding [4]: binds
